No constants are given. Whether binding was seen depends on the method and setting. Some results given as binding are weak or reduced against the parent protein; the word gives no strength.
Assays:
[1] = target: Recombinant human PDGFRβ/Fc chimera (R&D Systems Cat #385 PR) (human) (UniProt P09619); experiment: ELISA binding screen on captured PDGFRβ-Fc and ELISA ligand competition
[2] = target: sVEGFR1 (human) (UniProt P17948); experiment: phage ELISA on coated sVEGFR1 (0.1 ug/ml), detection with HRP anti-M13

Protein sequences, listed by entry. Tags and fused reporters are not part of them. Lines headed by an entry give the natural chain unless they say otherwise; changes in a name come on top. Chains listed by the source or under a name are the forms on record and can include a tag or linker.
sVEGFR1 (P17948, form named): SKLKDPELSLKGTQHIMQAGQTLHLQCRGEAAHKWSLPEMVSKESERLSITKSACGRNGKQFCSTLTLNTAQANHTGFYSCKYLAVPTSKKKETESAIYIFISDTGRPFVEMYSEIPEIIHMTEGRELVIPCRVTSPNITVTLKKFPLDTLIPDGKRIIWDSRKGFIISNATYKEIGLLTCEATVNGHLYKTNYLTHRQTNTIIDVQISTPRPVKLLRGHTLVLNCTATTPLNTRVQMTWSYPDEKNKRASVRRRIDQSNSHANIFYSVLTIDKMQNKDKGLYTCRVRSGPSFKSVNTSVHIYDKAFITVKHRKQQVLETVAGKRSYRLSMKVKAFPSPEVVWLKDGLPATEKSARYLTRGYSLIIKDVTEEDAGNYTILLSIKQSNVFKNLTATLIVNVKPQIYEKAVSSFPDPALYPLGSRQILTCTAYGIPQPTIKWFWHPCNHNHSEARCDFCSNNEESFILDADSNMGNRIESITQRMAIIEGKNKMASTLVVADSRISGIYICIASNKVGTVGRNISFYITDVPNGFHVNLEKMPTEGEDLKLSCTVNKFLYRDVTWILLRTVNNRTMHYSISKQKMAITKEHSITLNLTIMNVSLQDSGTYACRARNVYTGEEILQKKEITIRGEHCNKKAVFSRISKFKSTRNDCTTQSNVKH

binding [1] | binding [2] | Binder
binds |  | 53-E8 (VHH) VHH: EVQLVESGGGLVQAGGSLRLDCAASGRTSYAMGWFRQGTGKEREFVAAISPSGYYTYYEDSVKGRFFIHRDNAKNMVYLQMNSLTPEDTAVYYCAAGRHQTVSGILPDYWGQGIQVTVSS
binds |  | 53-H5 (VHH) VHH: EVQLVESGGGLVQIGGSLRLSCAASGRTFSSYAMGWFRQTPGKEREFVAAIGRNGGSIGYADSVKGRSTISRDNAKNMVYLQMNSLKPEDTAVYYCAATNKFSYSTLRNDYNYWGQGTQVTVSS
 | binds | 42-H5 (VHH, Purified Nanobody; Also used as negative control in the PDGFRβ assays) VHH: EVQLVESGGGLVQPGGSLTLSCAASGFTFSSYAMSWVRQAPGKGLELVSDINSGGISTYYADSVKGRFTISRDNAKNTLYLQMNSLKPEDTAVYYCKTDTLVAGTDDYWGQGTRVTVSS
 | binds | 46-F11 (VHH) VHH: EVQLVESGGGLVQPGGSLRLSCAASGFTFSSYAMSWVRQAPGKELEWVSGINSGGDRTVNADSVKGRFTVSRDNAKNTLYLQMNSLKPEDTALYYCAKSIPPTDDRNYWGQGTQVTVSS
